{"source": "the supplement of paper PMC8728848", "binders": {"B1": {"name": "GS7807F-bth-514-18-514 (Bacteroides thetaiotaomicron) (protein)", "chain": "AGSCTGNFEEYNTNQFQIHEADPSTLMKSMIETIVNIQQNDSQMMDQMVGQLGGYLTCANVWSGTNFGTFNQSDAWNAGPWNTNFEKIYGNFFQIQEATNESGHYYAFARMIRAITMLRVADCYGPMPYSQVKKGNFYVAYDTEEQVYKNIMEDFASAANVLYNYYKDTNGNAPLASNDPVFSGNYANWARLANSMRLRVAIRISTAYPEMAKENAEAAASHEAGLIEANNDNAMMDCGSQTNPYQLAAVSWGDLRVNANIVDYMNGYGDPRMSKYFNHSTFTGHTQEYVGMRSGEDGFAKSDVAGYSIPAITGTSKLLVFCAAETAFLRAEGKLKNWSVGNKSAKEYYEEGIKLSMEQYGTTMPDNYLTNTEKPTVSHNNDPRGHAYTISNTVAVAWNDNNEEENLQRIITQKWIANYPLGLEAWAEYRRTGYPELYPCIDNLSPSGVDSKRGMRRLRFPYTEVQNNHSNYQQGVSYLKNGGPDNEATDLSWGKTN"}}, "experiment_in_all_cases": "glycan array binding signal (z-score within array); higher = stronger binding", "conditions_in_all_cases": "glycan notation: IUPAC condensed, linker removed", "key": {"[1]": {"target": "GlcNAc(b1-2)Gal(b1-3)GalNAc", "how_it_was_run": "(§1)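 Glycan array binding is given as a within-array Z-score, which can be read as non-binding when negative. The arrays, 3228 of them, came from the Consortium for Functional Glycomics database and were retained only where the protein sequence was available. Z-scores were averaged across arrays of the same protein sequence at different concentrations or buffers and across linkers.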"}, "[2]": {"target": "GlcNAc(b1-2)Man(a1-3)[GlcNAc(b1-2)Man(a1-6)]Man(b1-4)GlcNAc(b1-4)GlcNAc", "how_it_was_run": "as §1"}, "[3]": {"target": "GlcNAc(b1-2)Man(a1-3)[GlcNAc(b1-2)Man(a1-6)]Man(b1-4)GlcNAc(b1-4)[Fuc(a1-6)]GlcNAc", "how_it_was_run": "as §1"}, "[4]": {"target": "GlcNAc(b1-2)Man(a1-3)[GlcNAc(b1-4)][GlcNAc(b1-2)Man(a1-6)]Man(b1-4)GlcNAc(b1-4)GlcNAc", "how_it_was_run": "as §1"}, "[5]": {"target": "GlcNAc(b1-2)Man(a1-3)[GlcNAc(b1-4)][GlcNAc(b1-2)Man(a1-6)]Man(b1-4)GlcNAc(b1-4)[Fuc(a1-6)]GlcNAc", "how_it_was_run": "as §1"}, "[6]": {"target": "GlcNAc(b1-2)[GlcNAc(b1-4)]Man(a1-3)[GlcNAc(b1-2)Man(a1-6)]Man(b1-4)GlcNAc(b1-4)GlcNAc", "how_it_was_run": "as §1"}, "[7]": {"target": "GlcNAc(b1-2)[GlcNAc(b1-4)]Man(a1-3)[GlcNAc(b1-4)][GlcNAc(b1-2)Man(a1-6)]Man(b1-4)GlcNAc(b1-4)GlcNAc", "how_it_was_run": "as §1"}, "[8]": {"target": "GlcNAc(b1-2)[GlcNAc(b1-4)]Man(a1-3)[GlcNAc(b1-4)][GlcNAc(b1-2)[GlcNAc(b1-6)]Man(a1-6)]Man(b1-4)GlcNAc(b1-4)GlcNAc", "how_it_was_run": "as §1"}, "[9]": {"target": "GlcNAc(b1-2)[GlcNAc(b1-4)]Man(a1-3)[GlcNAc(b1-4)][GlcNAc(b1-2)[GlcNAc(b1-6)]Man(a1-6)]Man(b1-4)GlcNAc(b1-4)[Fuc(a1-6)]GlcNAc", "how_it_was_run": "as §1"}, "[10]": {"target": "GlcNAc(b1-2)[GlcNAc(b1-6)]Man(a1-6)[GlcNAc(b1-2)Man(a1-3)]Man(b1-4)GlcNAc(b1-4)GlcNAc", "how_it_was_run": "as §1"}, "[11]": {"target": "GlcNAc(b1-2)[GlcNAc(b1-6)]Man(a1-6)[GlcNAc(b1-2)Man(a1-3)]Man(b1-4)GlcNAc(b1-4)[Fuc(a1-6)]GlcNAc", "how_it_was_run": "as §1"}, "[12]": {"target": "GlcNAc(b1-2)[GlcNAc(b1-6)]Man(a1-6)[GlcNAc(b1-4)][GlcNAc(b1-2)Man(a1-3)]Man(b1-4)GlcNAc(b1-4)GlcNAc", "how_it_was_run": "as §1"}, "GlcNAc(b1-3)Fuc": {"target": "GlcNAc(b1-3)Fuc", "how_it_was_run": "as §1"}, "GlcNAc(b1-3)Gal": {"target": "GlcNAc(b1-3)Gal", "how_it_was_run": "as §1"}, "[13]": {"target": "GlcNAc(b1-3)Gal(b1-3)GalNAc", "how_it_was_run": "as §1"}, "GlcNAc(b1-3)Gal(b1-4)Glc": {"target": "GlcNAc(b1-3)Gal(b1-4)Glc", "how_it_was_run": "as §1"}, "[14]": {"target": "GlcNAc(b1-3)Gal(b1-4)GlcNAc", "how_it_was_run": "as §1"}, "[15]": {"target": "GlcNAc(b1-3)Gal(b1-4)GlcNAc(b1-2)Man(a1-3)[GlcNAc(b1-3)Gal(b1-4)GlcNAc(b1-2)Man(a1-6)]Man(b1-4)GlcNAc(b1-4)GlcNAc", "how_it_was_run": "as §1"}}, "note": "The list shows a part of the results.", "data": [{"binder": "B1", "values": [{"measurement": "glycan array binding signal (z-score)", "setting": "[1]", "result": -0.792}, {"measurement": "glycan array binding signal (z-score)", "setting": "[2]", "result": -0.78}, {"measurement": "glycan array binding signal (z-score)", "setting": "[3]", "result": -0.346}, {"measurement": "glycan array binding signal (z-score)", "setting": "[4]", "result": -0.913}, {"measurement": "glycan array binding signal (z-score)", "setting": "[5]", "result": -0.886}, {"measurement": "glycan array binding signal (z-score)", "setting": "[6]", "result": -0.837}, {"measurement": "glycan array binding signal (z-score)", "setting": "[7]", "result": -0.9}, {"measurement": "glycan array binding signal (z-score)", "setting": "[8]", "result": -0.913}, {"measurement": "glycan array binding signal (z-score)", "setting": "[9]", "result": -0.898}, {"measurement": "glycan array binding signal (z-score)", "setting": "[10]", "result": -0.73}, {"measurement": "glycan array binding signal (z-score)", "setting": "[11]", "result": -0.75}, {"measurement": "glycan array binding signal (z-score)", "setting": "[12]", "result": -0.874}, {"measurement": "glycan array binding signal (z-score)", "setting": "GlcNAc(b1-3)Fuc", "result": -0.396}, {"measurement": "glycan array binding signal (z-score)", "setting": "GlcNAc(b1-3)Gal", "result": -0.877}, {"measurement": "glycan array binding signal (z-score)", "setting": "[13]", "result": -0.456}, {"measurement": "glycan array binding signal (z-score)", "setting": "GlcNAc(b1-3)Gal(b1-4)Glc", "result": -0.764}, {"measurement": "glycan array binding signal (z-score)", "setting": "[14]", "result": -0.881}, {"measurement": "glycan array binding signal (z-score)", "setting": "[15]", "result": -0.352}]}]}
